Laboratory results: patent publication US20190201419A1, “COMPOUND AND METHOD FOR THE TREATMENT AND DIAGNOSIS OF NEURODEGENERATIVE CONDITIONS” (Swansea University, priority 2013, published 2019)

Assay: LC-ESI-MSn of oxysterols and cholestenoic acids in human CSF
Conditions: pool of fifteen different control subjects (‡)

Row | SMILES | Mean concentration ± SE in CSF
1 | CC(CCC[C@@H](C)[C@H]1CC[C@H]2[C@@H]3[C@H](O)CC4=CC(=O)CC[C@]4(C)[C@H]3CC[C@]12C)C(=O)O (stereo partly drawn) [7αH,3O-CA, 7α-hydroxy-3-oxocholest-4-en-26-oic acid] | 19.476 ± 2.490‡ ng/mL
2 | CC(CCC[C@@H](C)[C@H]1CC[C@H]2[C@@H]3[C@H](O)C=C4C[C@@H](O)CC[C@]4(C)[C@H]3CC[C@]12C)C(=O)O (stereo partly drawn) [3β,7α-diHCA, 3β,7α-dihydroxycholest-5-en-26-oic acid] | 5.884 ± 0.460‡ ng/mL

Marks after values point to notes of the source that are not given here.
